According to the supplement of paper PMC7877785:
± gives the uncertainty stated by the source. Many of these values have a large error.

Experiment: self-splicing fitness, log relative to wild type (ln ratio); higher = more splicing; Tetrahymena group I intron in knt gene, E. coli kanamycin selection, DiMSum; sequences stand for … in CUCUCU…GGAGGGAAAAGUUAUCAGGCAUGCACCUGGUAGCUAGUCUUUAAACCAAUAGAUUGCAUCGGUUUAAAAGGCAAGACCGUCAAAUUGCGGGAAAGGGGUCAACAGCCGUUCAGUACCAAGUCUCAGGGGAAACUUUGAGAUGGCCUUGCAAAGGGUAUGGUAAUAAGCUGACGGACAUGGUCCUAACCACGCAGCCAAGUCCUAAGUCAACAGAUCUUCUGUUGAUAUGGAUGCAGUUCACAGACUAAAUGUCGGUCGGGGAAGAUGUAUUCUUCUCAUAAGAUAUAGUCGGACCUCUCCUUAAUGGGAGCUAGCGGAUGAAGUGAUGCAACACUGGAGCCGCUGGGAACUAAUUUGUAUGCGAAAGUAUAUUGAUUAGUUUUGGAGUACUCGUGGUCG
Procedure, shortened: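 Fitness was computed with DiMSum as the error-weighted combination of replicate fold changes, kanamycin versus none, each normalised to wild type. The library randomised all eight intron nucleotides of the P1ex region, with the intron placed in the knt kanamycin-resistance gene on pET-22b(+) in E. coli BL21(DE3). Six replicate transformations were grown overnight at 37°C or 30°C on LB agar with or without 25 μg/mL kanamycin, plus 100 μg/mL carbenicillin, 50 μM IPTG and 0.2% rhamnose. Pooled colonies were amplicon-sequenced on an Illumina HiSeq 2500.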

| Sequence | self-splicing fitness (ln) (37 °C) | self-splicing fitness (ln) (30 °C) |
| --- | --- | --- |
| UUCUAGCAAUAUUACGACGC | -1.08 ± 0.52 |  |
| AUCGAGCAAUAUUACGCCAG | -2.23 ± 0.8 |  |
| AUCUAGCAAUAUUACGAGCC | -2.02 ± 0.5 |  |
| AGUAAGCAAUAUUACGCGGC |  | -4.24 ± 0.59 |
| CUCUAGCAAUAUUACGAGCU | 0.182 ± 0.53 | -2.71 ± 1.1 |
| UAUAAGCAAUAUUACGAUAU | -1.96 ± 0.2 | -2.9 ± 0.21 |
| CCCGAGCAAUAUUACGCUCC | -2.23 ± 0.79 | -2.93 ± 0.54 |
| GUGGAGCAAUAUUACGCUUA | -1.04 ± 0.22 | -1.86 ± 0.14 |
| UCAAAGCAAUAUUACGGAAC | -2.49 ± 0.5 |  |
| CCAUAGCAAUAUUACGCAUC | -2.31 ± 0.3 | -3.39 ± 0.27 |
| ACGGAGCAAUAUUACGUGCC | -3.09 ± 1 |  |
| GUGUAGCAAUAUUACGCGGA |  | -1.73 ± 0.56 |
| UGUUAGCAAUAUUACGCCCC |  | -1.37 ± 0.73 |
| CGCAAGCAAUAUUACGAGAA |  | -0.86 ± 1 |
| UUUGAGCAAUAUUACGAUAC | -1.61 ± 0.6 |  |
| UCCUAGCAAUAUUACGCCGG |  | -4.18 ± 0.59 |
| AAUUAGCAAUAUUACGCCAC |  | -1.15 ± 0.76 |
| GCCGAGCAAUAUUACGCCCA | -1.47 ± 1.2 |  |
| UCAAAGCAAUAUUACGCGAU |  | -4.8 ± 1 |
| AGUAAGCAAUAUUACGAAUA | -1.82 ± 0.58 |  |
| UUCUAGCAAUAUUACGAGAG | -2.4 ± 0.29 | -2.3 ± 0.22 |
| CGAGAGCAAUAUUACGAAUA | -2.49 ± 0.54 | -3.09 ± 0.79 |
| GCUCAGCAAUAUUACGUGUG | -0.824 ± 0.074 | -1.26 ± 0.063 |
| CGCCAGCAAUAUUACGAACU |  | -3.09 ± 0.63 |

| Sequence | self-splicing fitness (ln) (37 °C) | self-splicing fitness (ln) (30 °C) |
| --- | --- | --- |
| AGUCAGCAAUAUUACGAGAA |  | -2.51 ± 0.73 |
| AGGGAGCAAUAUUACGCUUG | -1.37 ± 0.87 |  |
| UGAUAGCAAUAUUACGGACC | -1.67 ± 0.66 |  |
| AUUGAGCAAUAUUACGCUUC |  | -4.72 ± 1 |
| CGGGAGCAAUAUUACGUCCA | -1.07 ± 0.9 | -1.17 ± 0.63 |
| CUUUAGCAAUAUUACGAGCC | -2.79 ± 1.1 | -2.25 ± 1.1 |
| AAGUAGCAAUAUUACGAGAC | -2.03 ± 1.1 |  |
| UGUUAGCAAUAUUACGUCCC |  | -1.51 ± 0.67 |
| UCUUAGCAAUAUUACGGCGC | -2.53 ± 0.64 | -2.61 ± 0.39 |
| CCGAAGCAAUAUUACGAAUA | -2.49 ± 0.21 | -2.66 ± 0.24 |
| GCUGAGCAAUAUUACGCACG | -0.797 ± 0.52 | -1.96 ± 1.2 |
| CUAAAGCAAUAUUACGUUCU | -3.07 ± 0.26 | -4.08 ± 0.24 |
| UCUGAGCAAUAUUACGGGAA |  | -3.49 ± 0.6 |
| GUUGAGCAAUAUUACGCAGU |  | -3.35 ± 1 |
| CUAUAGCAAUAUUACGAGAA | -2.02 ± 0.51 | -2.12 ± 0.54 |
| GGCGAGCAAUAUUACGCCUG | -2.67 ± 0.75 |  |
| CCGAAGCAAUAUUACGCACA | -2.59 ± 0.28 | -3.87 ± 0.37 |
| UUGGAGCAAUAUUACGACGU | -0.234 ± 1.4 |  |
| AGGGAGCAAUAUUACGCCCA | -0.897 ± 0.34 | -1.26 ± 0.69 |
| UCAGAGCAAUAUUACGUUGC |  | -4.57 ± 0.73 |
| UAGUAGCAAUAUUACGGUCC |  | -3.42 ± 0.61 |
| UAUGAGCAAUAUUACGACAU | -2.56 ± 0.042 | -3.523 ± 0.029 |
| CUGUAGCAAUAUUACGGCCA | -2 ± 0.66 | -2.13 ± 0.63 |
| GGACAGCAAUAUUACGGUUA | 0.525 ± 0.11 | -0.28 ± 0.097 |

Record cards, as listed above.
CGAGAGCAAUAUUACGAAUA in the list: self-splicing fitness (ln) (37 °C): -2.49 ± 0.54; self-splicing fitness (ln) (30 °C): -3.09 ± 0.79
CCGAAGCAAUAUUACGAAUA in the list: self-splicing fitness (ln) (37 °C): -2.49 ± 0.21; self-splicing fitness (ln) (30 °C): -2.66 ± 0.24
